Measurements reported in ChEMBL document CHEMBL1153137, “Improving the developability profile of pyrrolidine progesterone receptor partial agonists” (Bioorg Med Chem Lett, 2010).

What was measured:
[1] = in vivo; settings: rat, iv
[2] = in vivo; settings: rat, iv; remark: listed apart in the source
[3] = in vivo; settings: rat, iv; remark: listed apart in the source
[4] = in vivo; settings: rat, iv; remark: listed apart in the source
[5] = in vivo; settings: rat, po

## C[C@H](O)C(=O)N1CC[C@H](N(Cc2cc(Cl)ccc2Cl)c2ccc(C#N)c(Cl)c2)C1
[1]
  clearance: 150 mL/min/kg
[2]
  Vd: 10 L/kg
[3]
  Cmax: 134 ng/mL
[4]
  half-life: 66 min
[5]
  bioavailability: 100%
